These are yes or no findings as the source states them, for the method shown. In cells and extracts the contact can be indirect. Some results given as binding are weak or reduced against the parent protein; the word gives no strength. For some of these results: Sequences can lack the tags named with a protein.

Chains of the proteins cited; added tags and fusions are not shown.
UniProt Q9Y4G2: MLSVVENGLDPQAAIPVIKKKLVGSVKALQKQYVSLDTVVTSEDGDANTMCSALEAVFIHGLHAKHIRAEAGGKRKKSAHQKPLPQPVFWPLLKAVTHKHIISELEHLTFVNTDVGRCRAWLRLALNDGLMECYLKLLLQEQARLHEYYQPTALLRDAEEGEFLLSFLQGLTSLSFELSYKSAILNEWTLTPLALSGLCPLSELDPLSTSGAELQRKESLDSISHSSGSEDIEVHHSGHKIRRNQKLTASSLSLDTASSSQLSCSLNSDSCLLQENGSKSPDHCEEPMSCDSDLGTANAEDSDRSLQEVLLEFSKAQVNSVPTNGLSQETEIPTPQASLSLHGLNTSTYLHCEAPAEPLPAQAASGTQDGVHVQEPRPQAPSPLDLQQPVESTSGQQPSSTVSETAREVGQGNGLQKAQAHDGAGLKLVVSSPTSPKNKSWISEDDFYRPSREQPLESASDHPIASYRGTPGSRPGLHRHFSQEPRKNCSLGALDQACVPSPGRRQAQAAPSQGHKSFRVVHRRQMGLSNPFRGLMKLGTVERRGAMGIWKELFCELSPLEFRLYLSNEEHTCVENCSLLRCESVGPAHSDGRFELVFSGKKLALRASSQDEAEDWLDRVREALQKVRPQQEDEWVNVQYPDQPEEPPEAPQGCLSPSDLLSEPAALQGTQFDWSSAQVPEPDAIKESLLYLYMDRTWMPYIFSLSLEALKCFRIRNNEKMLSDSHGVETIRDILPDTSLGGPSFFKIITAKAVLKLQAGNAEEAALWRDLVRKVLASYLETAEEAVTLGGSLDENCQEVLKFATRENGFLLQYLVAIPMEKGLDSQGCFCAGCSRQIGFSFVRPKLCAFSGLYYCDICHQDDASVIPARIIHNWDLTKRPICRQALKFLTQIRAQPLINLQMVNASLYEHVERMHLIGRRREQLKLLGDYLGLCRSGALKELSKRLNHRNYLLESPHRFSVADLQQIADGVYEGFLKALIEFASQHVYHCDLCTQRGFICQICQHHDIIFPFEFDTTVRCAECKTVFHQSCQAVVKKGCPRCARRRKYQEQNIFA

We go through four molecules from paper PMC10918171.

Common to all, as to experiment: co-IP
The target in assay [1] is T1, HA-Vps39 (UniProt Q96JC1).
T1 sequence: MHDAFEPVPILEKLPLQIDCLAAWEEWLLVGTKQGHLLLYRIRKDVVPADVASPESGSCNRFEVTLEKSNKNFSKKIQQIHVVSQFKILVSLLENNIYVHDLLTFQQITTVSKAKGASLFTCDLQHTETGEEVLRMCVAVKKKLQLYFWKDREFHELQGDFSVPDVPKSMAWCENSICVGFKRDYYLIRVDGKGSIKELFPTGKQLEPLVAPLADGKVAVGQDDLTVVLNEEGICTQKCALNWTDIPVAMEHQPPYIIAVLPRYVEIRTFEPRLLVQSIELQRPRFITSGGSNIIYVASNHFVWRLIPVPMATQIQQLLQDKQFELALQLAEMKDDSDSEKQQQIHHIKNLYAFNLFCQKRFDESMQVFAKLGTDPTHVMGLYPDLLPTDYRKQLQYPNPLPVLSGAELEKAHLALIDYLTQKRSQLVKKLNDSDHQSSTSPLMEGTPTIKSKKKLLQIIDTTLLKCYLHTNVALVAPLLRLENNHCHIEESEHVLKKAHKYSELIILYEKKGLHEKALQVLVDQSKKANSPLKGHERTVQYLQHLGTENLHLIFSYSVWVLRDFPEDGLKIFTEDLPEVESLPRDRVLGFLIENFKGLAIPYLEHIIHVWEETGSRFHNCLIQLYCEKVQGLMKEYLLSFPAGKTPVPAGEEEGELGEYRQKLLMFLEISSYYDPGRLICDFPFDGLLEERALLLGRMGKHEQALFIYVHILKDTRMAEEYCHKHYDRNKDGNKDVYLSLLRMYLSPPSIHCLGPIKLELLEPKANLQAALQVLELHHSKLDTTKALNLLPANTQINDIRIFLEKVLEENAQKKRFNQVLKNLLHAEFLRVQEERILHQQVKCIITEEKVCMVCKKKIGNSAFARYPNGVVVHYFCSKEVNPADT

The target of assay [2] is FLAG-PLEKHM1, Q9Y4G2. Conditions: remark: other sources report otherwise.
In assay [3] the target is FLAG-PLEKHM1 (UniProt Q9Y4G2).

B1: Vps11 (HOPS subunit), in cell lysate (protein, UniProt Q9H270 1-941)
chain: MAAYLQWRRFVFFDKELVKEPLSNDGAAPGATPASGSAASKFLCLPPGITVCDSGRGSLVFGDMEGQIWFLPRSLQLTGFQAYKLRVTHLYQLKQHNILASVGEDEEGINPLVKIWNLEKRDGGNPLCTRIFPAIPGTEPTVVSCLTVHENLNFMAIGFTDGSVTLNKGDITRDRHSKTQILHKGNYPVTGLAFRQAGKTTHLFVVTTENVQSYIVSGKDYPRVELDTHGCGLRCSALSDPSQDLQFIVAGDECVYLYQPDERGPCFAFEGHKLIAHWFRGYLIIVSRDRKVSPKSEFTSRDSQSSDKQILNIYDLCNKFIAYSTVFEDVVDVLAEWGSLYVLTRDGRVHALQEKDTQTKLEMLFKKNLFEMAINLAKSQHLDSDGLAQIFMQYGDHLYSKGNHDGAVQQYIRTIGKLEPSYVIRKFLDAQRIHNLTAYLQTLHRQSLANADHTTLLLNCYTKLKDSSKLEEFIKKKSESEVHFDVETAIKVLRQAGYYSHALYLAENHAHHEWYLKIQLEDIKNYQEALRYIGKLPFEQAESNMKRYGKILMHHIPEQTTQLLKGLCTDYRPSLEGRSDREAPGCRANSEEFIPIFANNPRELKAFLEHMSEVQPDSPQGIYDTLLELRLQNWAHEKDPQVKEKLHAEAISLLKSGRFCDVFDKALVLCQMHDFQDGVLYLYEQGKLFQQIMHYHMQHEQYRQVISVCERHGEQDPSLWEQALSYFARKEEDCKEYVAAVLKHIENKNLMPPLLVVQTLAHNSTATLSVIRDYLVQKLQKQSQQIAQDELRVRRYREETTRIRQEIQELKASPKIFQKTKCSICNSALELPSVHFLCGHSFHQHCFESYSESDADCPTCLPENRKVMDMIRAQEQKRDLHDQFQHQLKCSNDSFSVIADYFGRGVFNKLTLLTDPPTARLTSSLEAGLQRDLLMHSRRGT
B1: the binding entry in assay [1] is “binds”.

B2: Vps41 (HOPS subunit), in cell lysate, P49754 1-854 (protein)
chain: MAEAEEQETGSLEESTDESEEEESEEEPKLKYERLSNGVTEILQKDAASCMTVHDKFLALGTHYGKVYLLDVQGNITQKFDVSPVKINQISLDESGEHMGVCSEDGKVQVFGLYSGEEFHETFDCPIKIIAVHPHFVRSSCKQFVTGGKKLLLFERSWMNRWKSAVLHEGEGNIRSVKWRGHLIAWANNMGVKIFDIISKQRITNVPRDDISLRPDMYPCSLCWKDNVTLIIGWGTSVKVCSVKERHASEMRDLPSRYVEIVSQFETEFYISGLAPLCDQLVVLSYVKEISEKTEREYCARPRLDIIQPLSETCEEISSDALTVRGFQENECRDYHLEYSEGESLFYIVSPRDVVVAKERDQDDHIDWLLEKKKYEEALMAAEISQKNIKRHKILDIGLAYINHLVERGDYDIAARKCQKILGKNAALWEYEVYKFKEIGQLKAISPYLPRGDPVLKPLIYEMILHEFLESDYEGFATLIREWPGDLYNNSVIVQAVRDHLKKDSQNKTLLKTLAELYTYDKNYGNALEIYLTLRHKDVFQLIHKHNLFSSIKDKIVLLMDFDSEKAVDMLLDNEDKISIKKVVEELEDRPELQHVYLHKLFKRDHHKGQRYHEKQISLYAEYDRPNLLPFLRDSTHCPLEKALEICQQRNFVEETVYLLSRMGNSRSALKMIMEELHDVDKAIEFAKEQDDGELWEDLILYSIDKPPFITGLLNNIGTHVDPILLIHRIKEGMEIPNLRDSLVKILQDYNLQILLREGCKKILVADSLSLLKKMHRTQMKGVLVDEENICESCLSPILPSDAAKPFSVVVFHCRHMFHKECLPMPSMNSAAQFCNICSAKNRGPGSAILEMKK
With B2, the binding entry in assay [2] is “binds”.

B3: Vps33a (HOPS subunit), in cell lysate (protein, UniProt Q96AX1 1-596)
chain: MAAHLSYGRVNLNVLREAVRRELREFLDKCAGSKAIVWDEYLTGPFGLIAQYSLLKEHEVEKMFTLKGNRLPAADVKNIIFFVRPRLELMDIIAENVLSEDRRGPTRDFHILFVPRRSLLCEQRLKDLGVLGSFIHREEYSLDLIPFDGDLLSMESEGAFKECYLEGDQTSLYHAAKGLMTLQALYGTIPQIFGKGECARQVANMMIRMKREFTGSQNSIFPVFDNLLLLDRNVDLLTPLATQLTYEGLIDEIYGIQNSYVKLPPEKFAPKKQGDGGKDLPTEAKKLQLNSAEELYAEIRDKNFNAVGSVLSKKAKIISAAFEERHNAKTVGEIKQFVSQLPHMQAARGSLANHTSIAELIKDVTTSEDFFDKLTVEQEFMSGIDTDKVNNYIEDCIAQKHSLIKVLRLVCLQSVCNSGLKQKVLDYYKREILQTYGYEHILTLHNLEKAGLLKPQTGGRNNYPTIRKTLRLWMDDVNEQNPTDISYVYSGYAPLSVRLAQLLSRPGWRSIEEVLRILPGPHFEERQPLPTGLQKKRQPGENRVTLIFFLGGVTFAEIAALRFLSQLEDGGTEYVIATTKLMNGTSWIEALMEKPF
As for B3, the binding result in assay [3] is reported as “binds”.

B4: Vps18 (HOPS subunit), in cell lysate (protein, UniProt Q9P253 1-973)
chain: MASILDEYENSLSRSAVLQPGCPSVGIPHSGYVNAQLEKEVPIFTKQRIDFTPSERITSLVVSSNQLCMSLGKDTLLRIDLGKANEPNHVELGRKDDAKVHKMFLDHTGSHLLIALSSTEVLYVNRNGQKVRPLARWKGQLVESVGWNKALGTESSTGPILVGTAQGHIFEAELSASEGGLFGPAPDLYFRPLYVLNEEGGPAPVCSLEAERGPDGRSFVIATTRQRLFQFIGRAAEGAEAQGFSGLFAAYTDHPPPFREFPSNLGYSELAFYTPKLRSAPRAFAWMMGDGVLYGALDCGRPDSLLSEERVWEYPEGVGPGASPPLAIVLTQFHFLLLLADRVEAVCTLTGQVVLRDHFLEKFGPLKHMVKDSSTGQLWAYTERAVFRYHVQREARDVWRTYLDMNRFDLAKEYCRERPDCLDTVLAREADFCFRQRRYLESARCYALTQSYFEEIALKFLEARQEEALAEFLQRKLASLKPAERTQATLLTTWLTELYLSRLGALQGDPEALTLYRETKECFRTFLSSPRHKEWLFASRASIHELLASHGDTEHMVYFAVIMQDYERVVAYHCQHEAYEEALAVLARHRDPQLFYKFSPILIRHIPRQLVDAWIEMGSRLDARQLIPALVNYSQGGEVQQVSQAIRYMEFCVNVLGETEQAIHNYLLSLYARGRPDSLLAYLEQAGASPHRVHYDLKYALRLCAEHGHHRACVHVYKVLELYEEAVDLALQVDVDLAKQCADLPEEDEELRKKLWLKIARHVVQEEEDVQTAMACLASCPLLKIEDVLPFFPDFVTIDHFKEAICSSLKAYNHHIQELQREMEEATASAQRIRRDLQELRGRYGTVEPQDKCATCDFPLLNRPFYLFLCGHMFHADCLLQAVRPGLPAYKQARLEELQRKLGAAPPPAKGSARAKEAEGGAATAGPSREQLKADLDELVAAECVYCGELMIRSIDRPFIDPQRYEEEQLSWL
Regarding B4, the binding entry in assay [3] was “binds”.
